The list shows a part of the results.

Protein sequences, listed by entry. Tags and fused reporters are not part of them.
UniProt Q0JBA9, entry or part of it: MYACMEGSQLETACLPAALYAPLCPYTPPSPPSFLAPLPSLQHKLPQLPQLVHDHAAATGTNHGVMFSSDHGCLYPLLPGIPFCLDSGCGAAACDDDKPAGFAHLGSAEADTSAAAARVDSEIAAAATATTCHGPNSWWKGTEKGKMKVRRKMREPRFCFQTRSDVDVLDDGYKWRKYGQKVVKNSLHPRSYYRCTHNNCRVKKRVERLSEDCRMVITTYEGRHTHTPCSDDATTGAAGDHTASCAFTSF

Binding signal data for 42 sequences are collected here from paper PMC7819943, “Rice protein-binding microarrays: a tool to detect cis-acting elements near promoter regions in rice”.

In this assay the target is OsWRKY34 (Oryza sativa, UniProt Q0JBA9 1-250). Briefly: protein-binding microarray (RPBM); PBS, 2% BSA, 51.3 ng/ul salmon testes DNA, 50 uM zinc acetate, 200 nM TF, 25 C, 1 h; high values mean tight binding. As to conditions: protein: recombinant; tags: N-terminal polyhistidine and DsRed monomer fusion (pET32a); label: CyDye5-dUTP incorporated in the synthesized complementary strand; 3' TTTTT single-stranded linker to array surface; dsDNA, one strand shown. The gist of the method:
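Per-feature fluorescence intensity (arbitrary units), read on an Axon 4000B scanner, is the binding signal. Transcription factors carrying an N-terminal polyhistidine tag and DsRed fusion were expressed in E. coli BL21-CodonPlus and purified on Ni–NTA. A custom Agilent array, made double-stranded by primer extension with Cy5-dUTP and blocked with 2% BSA, was incubated with 200 nM protein in PBS, 2% BSA, salmon testes DNA and 50 µM zinc acetate at 25 °C for 1 h and then washed.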
“GGCATCCTACACTCTAGCTAGCCCACAGTCCGCTGCCGGCCGGAGTCACCTAGTGCAG”: the binding signal was 8790 fluorescence intensity (a.u.).
Regarding “CAGTCGTTTGTCCATCTCTCCCTCCACTACCCCGTCTCTCCGGAGTCACCTAGTGCAG”, the binding signal is 8410 fluorescence intensity (a.u.).
Next, “CGGTTCTTGTCGTAGAAAGCTCCGTGTTATCGTTTATATTCGGAGTCACCTAGTGCAG”: 8090 fluorescence intensity (a.u.).
On to “CCCCTACCACAGAGGACTCGTTCTCTCTCTCTCCTCTCGACGGAGTCACCTAGTGCAG”, for which the binding signal is 8510 fluorescence intensity (a.u.).
As for “CTTCTGATCCGTTTGTGTCAGAGCCAAATCTTCTTCTTCTCGGAGTCACCTAGTGCAG”, the binding signal is 8810 fluorescence intensity (a.u.).
Next, “CATCCGTTCTAGGAGGTTGTTTTCTTTGGACTTATTCCATCGGAGTCACCTAGTGCAG”: 8080 fluorescence intensity (a.u.); “TCTGTTTGGCCGGTTTTTGCACTAAGCTAATCACGGTTTACGGAGTCACCTAGTGCAG”: 9810 fluorescence intensity (a.u.).
The result for “GTCGCCGCTCGCCGCCACCTCGTCTTCCGCTGCGAGATCTCGGAGTCACCTAGTGCAG” reads 11300 fluorescence intensity (a.u.); that for “CCTTATACATTACTTAGTACTATGTTCGTTTCAGATTACGCGGAGTCACCTAGTGCAG”, 8820 fluorescence intensity (a.u.).
Next, “TCGCATTCGCATCTGCTTTTTCGGCGTTCTGTTCTGTTCTCGGAGTCACCTAGTGCAG”: 8370 fluorescence intensity (a.u.).
For “ACTTGGATCAATCCCTACCATCCGTCCACATCTATCTACTCGGAGTCACCTAGTGCAG”, the binding signal was 10300 fluorescence intensity (a.u.).
With “AATCTCACCCATCCACGTGTCCCCAGATCTCATCCCCATCCGGAGTCACCTAGTGCAG”, the binding signal is 8030 fluorescence intensity (a.u.).
The result for “CATCCCACCTGCTCCGGCGAGGGAGGGTCGGGGTCCTCAACGGAGTCACCTAGTGCAG” reads 8480 fluorescence intensity (a.u.); that for “TGCTGCTTGACATGTTTTTTTTCTTTTTCTTTTTCTTTTTCGGAGTCACCTAGTGCAG”, 10700 fluorescence intensity (a.u.).
Take “AACCGCATCATATGTATCCATGGTGGTCTTCTTTATCTTTCGGAGTCACCTAGTGCAG”: the binding signal is 11700 fluorescence intensity (a.u.).
Next, “TTCTCGATCACCTGCCTCGAGGTCTTCTTCACCGTCTTGGCGGAGTCACCTAGTGCAG”: 8950 fluorescence intensity (a.u.); “GGGCGTCGCCTCCCCTTTCTCGATCACCCGCGTATTATTACGGAGTCACCTAGTGCAG”: 9030 fluorescence intensity (a.u.).
The result for “GTTTATTTGTTTTATGTTGGCTTAACTCACTGTGAATGTGCGGAGTCACCTAGTGCAG” reads 9780 fluorescence intensity (a.u.); that for “AACACAAACCTTAGGCTACGTTCTCCATGTGCCTTTCGTCCGGAGTCACCTAGTGCAG”, 8800 fluorescence intensity (a.u.); that for “CCTTCACTTCACTCCCATTCCCATTTCCTCTCGCTCCCACCGGAGTCACCTAGTGCAG”, 8560 fluorescence intensity (a.u.).
Next, “TTCCTTTTTTTTCCTATGGCCTGCTTCCATCCAACAGCATCGGAGTCACCTAGTGCAG”: 9160 fluorescence intensity (a.u.); “ACGAAGAATTTCTCGCTTCGTTTCATCCCCACCATTTTTTCGGAGTCACCTAGTGCAG”: 8860 fluorescence intensity (a.u.); “TTGGTAGTTGAGGGACCCGTTGTGTCTGGTTTTTCGGTTGCGGAGTCACCTAGTGCAG”: 8740 fluorescence intensity (a.u.).
Consider “ATGTTGAGTATTATGTGTTTAGGGGTATATTAGTAATTTCCGGAGTCACCTAGTGCAG”, for which the binding signal was 11800 fluorescence intensity (a.u.).
“AAATGTCCTTGGTGGTTGGTGCTCTTTGGCCTCCTATATACGGAGTCACCTAGTGCAG”: the binding signal was 10600 fluorescence intensity (a.u.).
Next, “GGCAGCTGCTGTTTGTATCTTTTAGGCTGGCATCCACAACCGGAGTCACCTAGTGCAG”: 8330 fluorescence intensity (a.u.); “CCACACGTCCATCCAGTATCTACGTAACCCTTAATTGGTACGGAGTCACCTAGTGCAG”: 8070 fluorescence intensity (a.u.).
The result for “AGGGAGGGAGTAAAGAAAAAGTTTGGGGCGGTGACAAGAGCGGAGTCACCTAGTGCAG” reads 8610 fluorescence intensity (a.u.); that for “CACGCACCCACAGCACACCCACGCGGCCGCAGCCACGCGCCGGAGTCACCTAGTGCAG”, 8310 fluorescence intensity (a.u.).
The result for “GCGGATGAGATGGGAGATGGCACAAGGGGAAGGGGAGGGCCGGAGTCACCTAGTGCAG” reads 8560 fluorescence intensity (a.u.).
“CCGCGAGCTCTTCAAACCTGTGCGATCAAACTGTTGAACTCGGAGTCACCTAGTGCAG”: the binding signal was 8270 fluorescence intensity (a.u.).
For “AGAGATGTACTTTGTTTATTGTAGTGAATGGCTGCCTAATCGGAGTCACCTAGTGCAG”, the binding signal was 8660 fluorescence intensity (a.u.).
“TGTCTATAGAAAATGTTTTAATACCAGCGCACTCTCTATACGGAGTCACCTAGTGCAG”: the binding signal is 8850 fluorescence intensity (a.u.).
Next, “GGCGGTTGCTGCGGTGGGGAAGGGGTAGGGAGAAGCCCCTCGGAGTCACCTAGTGCAG”: 8990 fluorescence intensity (a.u.); “GTCCACCAAATAGCTAGCCTACCATCGTGCGTATTGGACACGGAGTCACCTAGTGCAG”: 8340 fluorescence intensity (a.u.); “ATACAAGAGGCGGTTTTTTTATTTCCTTTTCTTCCGTTTACGGAGTCACCTAGTGCAG”: 13600 fluorescence intensity (a.u.).
Turning to “CGTCGTCGTCGCGCCGGCCGGCTCTCTCTCTCTCTCTCCCCGGAGTCACCTAGTGCAG”, the binding signal is 8880 fluorescence intensity (a.u.).
Next, “TTTTTGCTTAAACCTTGGACCCTGTTACCTGTTTGGCTGACGGAGTCACCTAGTGCAG”: 9440 fluorescence intensity (a.u.); “ATCAGTAGTACCCCAGATCAGTTTGTTGCTTTGCTGCTTCCGGAGTCACCTAGTGCAG”: 11000 fluorescence intensity (a.u.); “TCTGTCTATCTATCTAATCTTCACTTGGAAGCAAATTTTGCGGAGTCACCTAGTGCAG”: 8250 fluorescence intensity (a.u.).
As to “ATTTTGATGCCTAGGACTTGTATTACACGCTCCCTTTCTTCGGAGTCACCTAGTGCAG”, the binding signal is 8350 fluorescence intensity (a.u.).
The result for “TCTAGTCCGTTCTAATCTCTTCCTATAGCTCCTTTTATTTCGGAGTCACCTAGTGCAG” reads 10300 fluorescence intensity (a.u.).
